{
  "sequences": {"note": "Protein sequences, listed by entry. Tags and fused reporters are not part of them. Residues count along the entry.", "UniProt Q60767, 28-1723": "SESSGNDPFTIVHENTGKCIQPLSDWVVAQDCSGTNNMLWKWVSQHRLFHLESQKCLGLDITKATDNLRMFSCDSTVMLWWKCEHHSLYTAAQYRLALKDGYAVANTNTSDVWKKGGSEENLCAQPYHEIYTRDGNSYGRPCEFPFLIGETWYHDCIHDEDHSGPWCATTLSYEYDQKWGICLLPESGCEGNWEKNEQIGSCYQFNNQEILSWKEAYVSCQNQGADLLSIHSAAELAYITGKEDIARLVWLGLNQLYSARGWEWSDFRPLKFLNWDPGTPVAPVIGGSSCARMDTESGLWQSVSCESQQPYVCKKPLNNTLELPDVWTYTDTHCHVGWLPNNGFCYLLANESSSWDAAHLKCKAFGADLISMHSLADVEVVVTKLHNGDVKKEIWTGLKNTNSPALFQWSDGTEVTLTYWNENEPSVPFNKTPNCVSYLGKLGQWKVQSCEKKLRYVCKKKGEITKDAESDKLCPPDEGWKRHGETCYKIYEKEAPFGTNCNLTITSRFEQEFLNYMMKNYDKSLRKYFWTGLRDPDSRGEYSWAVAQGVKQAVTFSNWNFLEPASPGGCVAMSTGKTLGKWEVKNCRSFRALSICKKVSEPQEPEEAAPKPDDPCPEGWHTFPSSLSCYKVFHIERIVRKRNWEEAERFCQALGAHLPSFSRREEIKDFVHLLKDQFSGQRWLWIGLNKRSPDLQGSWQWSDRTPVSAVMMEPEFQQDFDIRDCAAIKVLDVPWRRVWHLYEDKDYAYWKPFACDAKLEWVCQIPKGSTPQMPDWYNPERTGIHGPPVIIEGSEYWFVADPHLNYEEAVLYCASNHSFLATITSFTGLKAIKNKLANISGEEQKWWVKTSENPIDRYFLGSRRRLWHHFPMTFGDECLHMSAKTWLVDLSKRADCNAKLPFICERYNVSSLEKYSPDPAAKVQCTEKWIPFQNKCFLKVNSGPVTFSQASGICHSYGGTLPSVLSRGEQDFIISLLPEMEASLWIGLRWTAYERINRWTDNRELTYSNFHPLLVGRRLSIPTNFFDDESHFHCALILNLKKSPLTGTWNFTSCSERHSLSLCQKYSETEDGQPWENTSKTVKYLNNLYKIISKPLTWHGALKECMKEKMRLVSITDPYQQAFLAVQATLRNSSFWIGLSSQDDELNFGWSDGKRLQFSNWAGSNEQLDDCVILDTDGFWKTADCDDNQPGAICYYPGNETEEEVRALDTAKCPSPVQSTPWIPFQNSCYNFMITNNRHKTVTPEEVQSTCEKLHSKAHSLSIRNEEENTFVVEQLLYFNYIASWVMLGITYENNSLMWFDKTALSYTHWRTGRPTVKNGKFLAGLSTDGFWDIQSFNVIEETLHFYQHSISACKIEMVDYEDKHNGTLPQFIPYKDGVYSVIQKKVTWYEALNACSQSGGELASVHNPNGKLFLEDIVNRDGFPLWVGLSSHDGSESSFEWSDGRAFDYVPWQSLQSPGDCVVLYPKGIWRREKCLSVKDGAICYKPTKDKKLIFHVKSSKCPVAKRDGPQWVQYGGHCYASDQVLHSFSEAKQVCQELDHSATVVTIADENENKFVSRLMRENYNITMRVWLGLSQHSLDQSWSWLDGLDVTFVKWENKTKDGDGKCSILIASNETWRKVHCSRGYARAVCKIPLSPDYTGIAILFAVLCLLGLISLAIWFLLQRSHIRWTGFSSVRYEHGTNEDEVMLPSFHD"},
  "source": "patent US20150191730A1",
  "about": "“APTAMER-TARGETTED ANTIGEN DELIVERY” (ALBERT EINSTEIN COLLEGE OF MEDICINE OF YESHIVA UNIVERSITY, published 2015)",
  "molecular_target": "DEC205 (CD205, LY75), mouse, surface-expressed (Mus musculus) (UniProt Q60767)",
  "experiment": "flow cytometry",
  "details": "2'-F pyrimidines, 3' idT, 5' thiol, protein on the cell surface, label: Alexa Fluor 488 (5')",
  "note": "Results from cells or extracts need not show a direct contact. No signal at the amounts used counts as a negative. Whether high values mean tight binding is not given here for every scale.",
  "data": [
    {"sequence": "GGCGUAGUGAUUAUGAAUCGUGUGCUAAUACACGCC [cntrl.36 (c36)]", "values": [
      {"measurement": "binding result", "setting": "nonspecific control, A20.Kb/mDEC205 cells, RPMI, 37 C, described as non-binding aptamer", "result": "no binding"},
      {"measurement": "binding signal", "setting": "uptake 100-fold lower than min.2, 3:1 streptavidin multimer, 20 nM, 1 h, counted as no binding", "result": 39, "unit": "MFI"}
    ]}
  ]
}
